This assay concerns the target T1, untagged CD30 ligand isoform 1 (human) (UniProt P32971).
T1 sequence: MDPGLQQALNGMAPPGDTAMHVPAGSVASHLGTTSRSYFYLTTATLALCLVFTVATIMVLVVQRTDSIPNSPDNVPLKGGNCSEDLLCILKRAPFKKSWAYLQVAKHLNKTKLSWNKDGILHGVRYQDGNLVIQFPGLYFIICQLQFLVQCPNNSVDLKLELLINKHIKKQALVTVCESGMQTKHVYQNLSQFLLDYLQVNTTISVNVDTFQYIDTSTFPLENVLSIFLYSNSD
The assay can be described thus: antibody sandwich plate-based assay (Meso Scale electrochemiluminescence); Iso1-specific anti-CD30L antibody coated for capture; lysates of HEK cells expressing Iso1 with or without Iso2-FLAG, or Iso2-FLAG alone; anti-FLAG detection.

No constants are given. Whether binding was seen depends on the method and setting. A result given as binding can be weak or reduced; the word gives no strength. Tags and fused reporters may be left off the sequences shown.

As for “FLAG-tagged CD30 ligand isoform 2 (human)”, the binding entry is on record as “binds”.

Values taken from paper PMC10969620.
